The nature of this data set: Efflux ratio of apparent permeability from basolateral to apical side over apical to basolateral side in human Caco2 cells at 10 uM incubated for 1 hr by HPLC-MS/MS analysis. Type of data set: ADME, cell-based. The conditions noted are these: Caco-2. On the technique in general: Caco-2 monolayers are a common model of the intestinal barrier.

One may read the efflux ratio as the permeability from basolateral to apical divided by that in the opposite direction, in the common usage.

In the case of `C[C@H]1O[C@@H](O[C@H]2[C@@H](O)C[C@H](O[C@H]3[C@@H](O)C[C@H](O[C@H]4CC[C@@]5(C)[C@H](CC[C@@H]6[C@@H]5C[C@@H](O)[C@]5(C)[C@@H](C7=CC(=O)OC7)CC[C@]65O)C4)O[C@@H]3C)O[C@@H]2C)C[C@H](O)[C@@H]1O` [DIGOXIN], the efflux ratio at 1 h, 10 µM came to 11.2.

(Values after ChEMBL document CHEMBL3779865, “Discovery of Benzo[cd]indol-2(1H)-ones as Potent and Specific BET Bromodomain Inhibitors: Structure-Based Virtual Screening, Optimization, and Biological Evaluation” (J Med Chem, 2016).)
